These are yes or no findings as the source states them, for the method shown. Some binding calls cover weakened binding; strength is not graded here.
Legend:
[1] = molecular target: human HVEM recombinant protein (Sino Biological, 10334-H03H) (human) (UniProt Q92956); assay: ELISA, coated HVEM, mAb 125 ng/ml
[2] = molecular target: human HVEM recombinant protein (Sino Biological, 10334-H03H) (human) (UniProt Q92956); assay: ELISA, coated HVEM

By UniProt entry, the sequences of proteins in these tests, tags left out. Where a name states a change or a piece, a line headed by the entry shows the natural chain unless it says otherwise. Residues count along the entry.
UniProt Q92956, residues 39-202: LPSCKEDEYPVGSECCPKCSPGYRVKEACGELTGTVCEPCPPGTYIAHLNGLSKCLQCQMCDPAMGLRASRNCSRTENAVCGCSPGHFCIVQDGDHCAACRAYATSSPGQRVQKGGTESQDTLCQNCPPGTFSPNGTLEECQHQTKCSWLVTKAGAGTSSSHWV

Binder | binding [1] | binding [2]
Ab_090 (H5S14-7A4A) (antibody, V domains shown) VH: EVQLQQSGPELVKPGASVKISCKTSGYTFTEYTMHWVKQSHGKSLEWIGGINPNNGGTINNQKFKGKATLTVDMSSSTAYMELRSLTSEDSAVYYCAGSVVDRYWYFDVWGAGTTVTVSS VL: QIVLTQSPAIMSASPGEKVTISCSASSSVSYMYWYQQKPGSSPKPWIYRTSNLASGVPARFSGSGSGTSYSLTISSMEAEDAATYYCQQYHSYPLTFGAGTKLELK | binds | –
Ab_091 (H5S15-10A11A) (antibody, V domains shown) VH: DVQLVESGGGLVQPGGSRKLSCAASGFTFSSFGMHWIRQAPEKGLEWVASISSGSSTIYFADTVKGRFTISRDNPKNTLFLQMTSLRSEDTAMYYCARGAYGNFAWFPYWGQGTLVTVSA VL: DVVMTQTPLSLPVSLGDQASVSCRSSQSLVHSNGNTYLHWYLQKPGQSPKLLIYKVSNRFSGVPDRFIGSGSGTDFTLKISRVEAEDLGVYFCSQSTHVPTFGSGTKLEVK | – | no binding (tested: 125 ng/ml)
Ab_092 (H5S15-15A8A) (antibody, V domains shown) VH: QIQLVQSGPEVKKPGETVKISCKASGYTLTNYGMNWVKQAPGKGLKWVGWINTYTGEPTYADDFKGRFAFSLETSASTAYLQINNLKNEDMATYFCARSFYGSEAYWGQGTLVTVSA VL: QIVLTQSPAIMSASLGEEITLTCSASSSVSFMHWYQQKSGTSPKLLIYSTSNLASGVPSRFSGSGSGTFYSLTISSVEAEDAADYYCHQWSSYLWTFGGGAKLEIK | – | no binding (tested: 125 ng/ml)
